PubChem BioAssay AID1159579 – Peter MacCallum Cancer Centre, 2015
This is one part, drawn at random, of about 2,000 deposited reagents. 549 of all reagents (27%) count as active. 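Some migration ratios are negative; siRNAs with too few cells are inactive whatever their migration ratio.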 A number with no mark means an inactive call. The numbers tell different reagents against one gene apart. Further read-outs or replicates are left out here. Not stated in the record: the time to read-out.

- Screen: 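Follow-up screen seeking modulators of motility in lymphatic endothelial cells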 (follow-up of hits)
- System: human dermal lymphatic endothelial cells
- Reagents: single siRNA against human genes, 25 nM
- Measurement: 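High content images of wound closure area and cell nuclei counts, each the average of two wells, expressed against mock transfection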
- Scale: migration relative to mock: higher = more migration into the scratch; mean nuclei count: higher = more cells remaining
- Hit rule: 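a ratio of at most 0.6 or at least 1.3 marks altered migration and an active call; a mean nuclei count under 3300 forces an inactive call regardless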
- Meaning of the calls: active = migration changed (impaired or accelerated); inactive = no migration change, or too few cells

| Gene | reagent no. | migration relative to mock | mean nuclei count |
| --- | --- | --- | --- |
| PCDH11X | 1 | -0.12 (active) | 3440 |
| PCDH11X | 2 | 0.9 | 5428 |
| PCDH11X | 3 | 0.82 | 6494 |
| PCDH11X | 4 | 1.04 | 5897 |
| MICAL2 | 1 | 0.84 | 6524 |
| MICAL2 | 2 | 0.34 (active) | 5974 |
| MICAL2 | 3 | 1.04 | 6898 |
| MICAL2 | 4 | -0.64 (active) | 4324 |
| S100A8 | 1 | 0.57 (active) | 5499 |
| S100A8 | 2 | 0.82 | 6826 |
| S100A8 | 3 | 0.71 | 5910 |
| S100A8 | 4 | 0.9 | 5474 |
| APOBEC4 | 1 | 0.32 | 3186 |
| APOBEC4 | 2 | 0.7 | 4090 |
| APOBEC4 | 3 | 0.8 | 4520 |
| APOBEC4 | 4 | 0.36 (active) | 5104 |
| CATSPERT | 1 | 0.78 | 6212 |
| CATSPERT | 2 | 0.53 (active) | 3412 |
| CATSPERT | 3 | 1.06 | 6442 |
| CATSPERT | 4 | 0.54 (active) | 5858 |
| NTM | 1 | 1.04 | 6702 |
| NTM | 2 | 0.95 | 5314 |
| NTM | 3 | 0.43 (active) | 6752 |
| NTM | 4 | 0.48 | 3139 |
| BBS7 | 1 | 0.69 | 5415 |
| BBS7 | 2 | 0.64 | 6002 |
| BBS7 | 3 | 0.9 | 5278 |
| BBS7 | 4 | 0.97 | 5955 |
| MST1R | 1 | 0.68 | 6656 |
| MST1R | 2 | 0.74 | 5918 |
| MST1R | 3 | 0.75 | 6050 |
| MST1R | 4 | 0.57 (active) | 5165 |

Continued, starting with the last 8 of the part before.
| Gene | reagent no. | migration relative to mock | mean nuclei count |
| --- | --- | --- | --- |
| BBS7 | 1 | 0.69 | 5415 |
| BBS7 | 2 | 0.64 | 6002 |
| BBS7 | 3 | 0.9 | 5278 |
| BBS7 | 4 | 0.97 | 5955 |
| MST1R | 1 | 0.68 | 6656 |
| MST1R | 2 | 0.74 | 5918 |
| MST1R | 3 | 0.75 | 6050 |
| MST1R | 4 | 0.57 (active) | 5165 |
| RBM24 | 1 | 1.23 | 6034 |
| RBM24 | 2 | 0.92 | 4768 |
| RBM24 | 3 | 0.42 (active) | 5203 |
| RBM24 | 4 | 0.76 | 5204 |
| GLIPR1 | 1 | 0.99 | 5814 |
| GLIPR1 | 2 | 0.98 | 6590 |
| GLIPR1 | 3 | 1.18 | 6614 |
| GLIPR1 | 4 | 1.38 (active) | 5954 |
| PCDHB3 | 1 | 1.03 | 6680 |
| PCDHB3 | 2 | 0.72 | 4335 |
| PCDHB3 | 3 | 0.84 | 5314 |
| PCDHB3 | 4 | 1.15 | 6139 |
| GRHL1 | 1 | -0.03 (active) | 3636 |
| GRHL1 | 2 | 0.46 | 3072 |
| GRHL1 | 3 | 0.92 | 6597 |
| GRHL1 | 4 | 0.56 (active) | 4390 |
| APBA3 | 1 | 0.58 (active) | 5213 |
| APBA3 | 2 | 0.94 | 7104 |
| APBA3 | 3 | 0.65 | 6010 |
| APBA3 | 4 | 0.44 (active) | 4161 |
| PLCG1 | 1 | 0.44 (active) | 4699 |
| PLCG1 | 2 | 0.49 (active) | 6219 |
| PLCG1 | 3 | 0.68 | 4880 |
| PLCG1 | 4 | 0.63 | 5812 |
| FAM9C | 1 | 0.72 | 4776 |
| FAM9C | 2 | 0.73 | 5680 |
| FAM9C | 3 | 0.99 | 5554 |
| FAM9C | 4 | 0.72 | 5438 |
| FMN2 | 1 | 1 | 5813 |
| FMN2 | 2 | 1.02 | 5478 |
| FMN2 | 3 | 1.46 (active) | 4988 |
| FMN2 | 4 | 0.86 | 4433 |
| SLC26A11 | 1 | 0.41 (active) | 4904 |
| SLC26A11 | 2 | 0.75 | 5678 |
| SLC26A11 | 3 | -0.08 (active) | 4512 |
| SLC26A11 | 4 | 0.58 (active) | 5589 |
